Laboratory results from US20130336951A1.
These are yes or no findings as the source states them, for the method shown. Binding seen in cells or lysates may run through a third protein. Some binding calls cover weakened binding; strength is not graded here. Tags and fused reporters may be left off the sequences shown.

Amino acid sequences for entries named in this document (tags omitted).
UniProt P10361: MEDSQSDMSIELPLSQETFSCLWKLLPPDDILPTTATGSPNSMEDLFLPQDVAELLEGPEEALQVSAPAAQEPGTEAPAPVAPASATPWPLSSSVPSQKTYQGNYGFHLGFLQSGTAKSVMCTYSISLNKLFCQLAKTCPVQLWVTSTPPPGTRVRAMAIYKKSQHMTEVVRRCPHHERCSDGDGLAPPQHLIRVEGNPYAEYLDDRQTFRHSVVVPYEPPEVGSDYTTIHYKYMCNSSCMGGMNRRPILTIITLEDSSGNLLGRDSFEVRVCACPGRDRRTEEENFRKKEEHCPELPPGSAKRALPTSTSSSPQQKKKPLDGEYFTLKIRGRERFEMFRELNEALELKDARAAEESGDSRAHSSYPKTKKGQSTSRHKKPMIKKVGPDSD

Key:
[1] = target: p53, endogenous protein of rat hippocampus (rat) (UniProt P10361); assay: GST pull-down, Western blot (FIG. 24E-H)
[2] = target: p53, endogenous protein of rat hippocampus (rat) (UniProt P10361); assay: GST pull-down, Western blot (FIG. 24H)

In the case of IPELNGKLTGMAFRVPTANVSVVDLTCRLE (peptide, not shown: a dimerising Fc or GST) [GST-GAPDH(2-2-1-1) (I221-E250)], the binding [1] is reported as “binds” and the binding [2] is reported as “binds”.
